Measured values published in the supplement of paper PMC7661543.
Differences between knockout arms are mostly noise.

Key:
HCC-38 = test: relative cell number vs DMSO control (72 h) (% of DMSO); higher = less growth inhibition (more cells)
Description: (§1)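 QMAP-Seq: a pool of 5 breast cancer cell lines (ZR-75-1, SKBR3, HCC-38, MDA-MB-231, BT-20), each carrying 12 doxycycline-inducible Cas9 sgRNA perturbations (11 knockouts plus non-targeting sgNT), was treated with compounds for 72 h at four 10-fold doses (10 nM-10 uM or 1 nM-1 uM range). Barcodes were amplified and sequenced, and cell number was interpolated from 293T spike-in standard curves. The result is expressed as % of the median of DMSO wells. Two biological replicates.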

BT-20 = test: as above
Description: as §1

COC(=O)[C@]12CCC(C)(C)C[C@H]1[C@H]1C(=O)C=C3[C@@]4(C)C=C(C#N)C(=O)C(C)(C)[C@@H]4CC[C@@]3(C)[C@]1(C)CC2 [BardoxoloneMethyl]
relative cell number
Settings	BT-20	HCC-38
sgRNA knockout: sgATF3, 10 nM	87.6	95.6
sgRNA knockout: sgATF3, 100 nM	81.88	94.8
sgRNA knockout: sgATF3, 1000 nM	20.9	22.1
sgRNA knockout: sgATF3, 10000 nM	3.2	4.98
sgRNA knockout: sgATF4, 10 nM	102	97
sgRNA knockout: sgATF4, 100 nM	83.8	90.27
sgRNA knockout: sgATF4, 1000 nM	21.7	29.4
sgRNA knockout: sgATF4, 10000 nM	4.62	4.72
sgRNA knockout: sgATF6, 10 nM	85.6	96.7
sgRNA knockout: sgATF6, 100 nM	95.5	94.7
sgRNA knockout: sgATF6, 1000 nM	20.7	33.2
sgRNA knockout: sgATF6, 10000 nM	3.17	4.9163
sgRNA knockout: sgATG7, 10 nM	107	98.3
sgRNA knockout: sgATG7, 100 nM	73.8	97.8
sgRNA knockout: sgATG7, 1000 nM	17.6	25.7
sgRNA knockout: sgATG7, 10000 nM	3.99	4.98
sgRNA knockout: sgERN1, 10 nM	87.8	102
sgRNA knockout: sgERN1, 100 nM	88.3	97.1
sgRNA knockout: sgERN1, 1000 nM	18.1	23.6
sgRNA knockout: sgERN1, 10000 nM	2.86	5.1
sgRNA knockout: sgHSF1, 10 nM	94.4	101
sgRNA knockout: sgHSF1, 100 nM	81.8	77.7
sgRNA knockout: sgHSF1, 1000 nM	20.4	22.5
sgRNA knockout: sgHSF1, 10000 nM	4.22	6.26
sgRNA knockout: sgHSF2, 10 nM	91.6	94.5
sgRNA knockout: sgHSF2, 100 nM	77.7	103
sgRNA knockout: sgHSF2, 1000 nM	19.6	24.63
sgRNA knockout: sgHSF2, 10000 nM	4.22	3.89
sgRNA knockout: sgKEAP1, 10 nM	92	91.9
sgRNA knockout: sgKEAP1, 100 nM	82	75.8
sgRNA knockout: sgKEAP1, 1000 nM	24.4	26.5
sgRNA knockout: sgKEAP1, 10000 nM	4.33	4.29
sgRNA knockout: sgNFE2L2, 10 nM	92.8	93.1
sgRNA knockout: sgNFE2L2, 100 nM	57.4	92.1
sgRNA knockout: sgNFE2L2, 1000 nM	17.2	24.4
sgRNA knockout: sgNFE2L2, 10000 nM	3.72	5.44
sgRNA knockout: sgSLC35F2, 10 nM	97.1	97.4
sgRNA knockout: sgSLC35F2, 100 nM	84.7	90.4
sgRNA knockout: sgSLC35F2, 1000 nM	22.8	27.2
sgRNA knockout: sgSLC35F2, 10000 nM	6.22	5.7
sgRNA knockout: sgXBP1, 10 nM	80.2	104
sgRNA knockout: sgXBP1, 100 nM	76	96.4
sgRNA knockout: sgXBP1, 1000 nM	22.7	25.6
sgRNA knockout: sgXBP1, 10000 nM	4.87	4.6

O=C(O)C(Cc1c[nH]c2ccccc12)N1C(=O)c2ccccc2C1=O (stereo unspecified) [RG108]
relative cell number
Settings	BT-20	HCC-38
sgRNA knockout: sgATF3, 10 nM	111	87.9
sgRNA knockout: sgATF3, 100 nM	92.71	92.7
sgRNA knockout: sgATF3, 1000 nM	89.8	94.9
sgRNA knockout: sgATF3, 10000 nM	102	99.5
sgRNA knockout: sgATF4, 10 nM	114	87.7
sgRNA knockout: sgATF4, 100 nM	90.8	82.5
sgRNA knockout: sgATF4, 1000 nM	91.4	86.5
sgRNA knockout: sgATF4, 10000 nM	107	98.3
sgRNA knockout: sgATF6, 10 nM	97.9	93.4
sgRNA knockout: sgATF6, 100 nM	78.5	99.6
sgRNA knockout: sgATF6, 1000 nM	99.1	99.08
sgRNA knockout: sgATF6, 10000 nM	93.6	103
sgRNA knockout: sgATG7, 10 nM	93.5	86.9
sgRNA knockout: sgATG7, 100 nM	91.5	86.6
sgRNA knockout: sgATG7, 1000 nM	102	94.4
sgRNA knockout: sgATG7, 10000 nM	88.4	91.8
sgRNA knockout: sgERN1, 10 nM	88.1	87.9
sgRNA knockout: sgERN1, 100 nM	85.2	81.4
sgRNA knockout: sgERN1, 1000 nM	86.4	95.8
sgRNA knockout: sgERN1, 10000 nM	101	92.5
sgRNA knockout: sgHSF1, 10 nM	90.9	101
sgRNA knockout: sgHSF1, 100 nM	90.7	97.6
sgRNA knockout: sgHSF1, 1000 nM	101	103.9
sgRNA knockout: sgHSF1, 10000 nM	98.8	108
sgRNA knockout: sgHSF2, 10 nM	69.5	93.3
sgRNA knockout: sgHSF2, 100 nM	85.4	89.5
sgRNA knockout: sgHSF2, 1000 nM	123	98
sgRNA knockout: sgHSF2, 10000 nM	109	104
sgRNA knockout: sgKEAP1, 10 nM	107	86.1
sgRNA knockout: sgKEAP1, 100 nM	91.6	94.2
sgRNA knockout: sgKEAP1, 1000 nM	96.19	113
sgRNA knockout: sgKEAP1, 10000 nM	97.6	96.4
sgRNA knockout: sgNFE2L2, 10 nM	94.8	92.4
sgRNA knockout: sgNFE2L2, 100 nM	81.9	85.5
sgRNA knockout: sgNFE2L2, 1000 nM	106	85.1
sgRNA knockout: sgNFE2L2, 10000 nM	98.8	101
sgRNA knockout: sgSLC35F2, 10 nM	89.8	88.5
sgRNA knockout: sgSLC35F2, 100 nM	83.9	84.7
sgRNA knockout: sgSLC35F2, 1000 nM	114	84.1
sgRNA knockout: sgSLC35F2, 10000 nM	92.7	98.3
sgRNA knockout: sgXBP1, 10 nM	85	88.2
sgRNA knockout: sgXBP1, 100 nM	86.93	87.2
sgRNA knockout: sgXBP1, 1000 nM	92.3	88.7
sgRNA knockout: sgXBP1, 10000 nM	112	102
